# PubChem BioAssay AID2685 (National Center for Advancing Translational Sciences (NCATS), 2010)
# This is one part of the list. These are further read-outs of the screen, such as a control signal, another cell line or another target. No call is given for them. Compounds called inactive in the main read-out are mostly missing here. The note in brackets gives the kind of curve behind each potency; many fits are weak.
# Experiment: qHTS Assay for Lipid Storage Modulators in Drosophila S3 Cells;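 on cell number change: cells counted by Cell Tracker Red CMTPX staining in the red channel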
# Conditions: BODIPY lipid droplet fluorescence, 18-24 h; for cell number change: measured here: cell count max response, cells fed with added oleic acid
# Method in brief: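 Drosophila S3 cells loaded with oleic acid (400 uM, as added) and compounds at several concentrations; lipid droplets imaged by 488-nm laser-scanning cytometry, 500–530 nm intensity and object ratio to cell channel. Percent activity normalized to 20 uM Triacsin C.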
# [1] = measured here: cell number channel AC50, cells fed with added oleic acid
# [2] = measured here: lipid fluorescence (Fed channel) AC50, cells fed with added oleic acid
Compound,cell number change [%],AC50 [1],AC50 [2]
CCCCNC(=S)Nc1ccc([N+](=O)[O-])cc1,-62.6,"32.6 µM [falling, single point]","29.1 µM [falling, single point]"
S=c1[nH]nc(COc2ccccc2)n1/N=C/c1ccccc1Br,-34.7,"20.6 µM [falling, partial curve, poor fit]",–
Cc1cc(C)c2cc(CN(CCO)C(c3nnnn3Cc3ccc(F)cc3)C(C)C)c(=O)[nH]c2c1 (configuration not stated),-23.5,–,"4.11 µM [rising, partial curve]"
Cc1ccc(S(=O)(=O)N2CCC(C(=O)N3CCc4ccccc43)CC2)cc1C,-11.2,–,–
NNC(=O)Cn1c(-c2ccccc2)cc(=O)n2ncnc12,24.3,–,"0.103 µM [falling, full curve, poor fit]"
COc1ccc(C(=O)NCC(=O)N/N=C(\C)Cc2ccccc2)cc1,34,"16.4 µM [rising, single point]","18.4 µM [rising, single point]"
CN(C)c1ccc(/C=C2\CCCc3c2nc2ccccc2c3C(=O)O)cc1,24.4,–,–
COc1ccccc1CNC(=O)[C@H](C)NC(=O)C1CCN(C(=O)[C@@H](N)C(C)C)CC1,-19.5,–,"0.82 µM [falling, full curve, poor fit]"
COc1cc(C(=O)N(C)CCOc2ccccc2)ccc1OCC(=O)Nc1cccc(C(F)(F)F)c1,37.1,"4.11 µM [rising, full curve]","2.91 µM [rising, partial curve]"
CC1(c2nnc(Cc3ccccc3)o2)CC(c2ccc([N+](=O)[O-])cc2)=NO1 (configuration not stated),6.39,–,"6.51 µM [rising, partial curve, poor fit]"
O=C(Nc1ccc(Cl)cc1)N1CCCC1,4.72,–,"18.4 µM [rising, single point]"
CCN(CCCNC(=O)CNC(=O)c1nn(-c2ccc(OC)c(OC)c2)c(=O)c2ccccc12)c1ccccc1,-26.2,–,–
NC(=O)CSC1=Nc2ccccc2C2=NC(CCC(=O)NCc3ccc(F)cc3)C(=O)N12 (configuration not stated),4.92,–,–
Cc1cc(C)c(C2=NOC3C4CCC(C4)C23)c(C)c1 (configuration not stated),135,"29.1 µM [rising, single point]","0.103 µM [falling, full curve, poor fit]"
Cc1cc(C(=O)NNS(=O)(=O)c2cc(C(=O)O)ccc2Cl)c(C)n1-c1ccccc1,-4.66,–,"4.11 µM [falling, single point]"
COc1cc(S(=O)(=O)NC2CCCCC2C)ccc1-n1cnnn1 (configuration not stated),13.8,–,"1.84 µM [rising, full curve, poor fit]"
COc1ccc(C(c2nnnn2Cc2ccccc2)N2CCN(c3ccccc3)CC2)cc1 (configuration not stated),13,–,"1.3 µM [rising, full curve]"
O=C(NNC(=S)NC(=O)c1ccccc1[N+](=O)[O-])c1ccccc1O,8.76,–,"0.0058 µM [falling, full curve, poor fit]"
CCN(c1ccc(F)cc1)S(=O)(=O)c1cccc2nsnc12,-31.9,"25.9 µM [falling, single point]","11.6 µM [rising, partial curve]"
O=C(CC(c1ccccc1)c1ccccc1)OCn1nnc2ccccc2c1=O,52,"0.517 µM [rising, partial curve]",–

Compound,cell number change [%],AC50 [1],AC50 [2]
CN1C(=O)CC(n2c(CO)nc3ccccc32)C1=O (configuration not stated),-24.1,–,"29.1 µM [falling, single point]"
CCCC(O)(c1ccc(OC)cc1)C(CN1CCOCC1)c1ccccc1 (configuration not stated),-18.4,–,"0.731 µM [falling, full curve]"
Cc1ccc(CSc2nnc(SCC(=O)N/N=C/c3c[nH]c4ccccc34)s2)cc1,-45.7,"5.17 µM [falling, full curve]","5.8 µM [falling, partial curve]"
O=C1CC(N(O)c2ccccc2)C(=O)N1c1cc(Cl)cc(Cl)c1 (configuration not stated),5.34,–,"18.4 µM [falling, single point]"
Oc1ccc(C2=NN(c3ccccc3)C(c3ccc(F)cc3)C2)cc1 (configuration not stated),-27.8,–,"0.58 µM [falling, single point]"
Cc1ccccc1NS(=O)(=O)c1ccc(-c2ccc(=O)[nH]n2)o1,20.6,–,"6.51 µM [falling, single point]"
CCOC(=O)[C@@H]1[C@H]2COc3ccccc3[C@@H]2N2C(=O)N(c3ccc(Cl)cc3)C(=O)[C@@]12C,-0.599,–,"0.58 µM [falling, single point]"
O=C(NCC(=O)N1CCCC1)c1ccc(Br)o1,1.75,–,"3.26 µM [rising, single point]"
Cc1cc(C(=O)OCC(=O)N(C)c2ccccc2)ccc1[N+](=O)[O-],20.1,–,"6.51 µM [rising, partial curve, poor fit]"
CCOC(=O)c1cccc(-n2c(C)cc(C=O)c2C)c1,–,"6.51 µM [rising, single point]","14.6 µM [rising, single point]"
CCOC(=O)c1ccc(NC(=O)Nc2cc(C)on2)cc1,-23.7,–,"6.51 µM [falling, single point]"
O=C(Nc1cccc(F)c1)C1CCN(S(=O)(=O)c2cccc3nonc23)CC1,-27,"0.13 µM [falling, full curve, poor fit]",–
O=c1ccc(=O)n(-c2ccccc2)[nH]1,–,–,"29.1 µM [falling, single point]"
O=C(O)CCCNC(=O)CCCNC(=O)C(c1ccccc1)c1ccccc1,-6.26,–,"0.0058 µM [falling, full curve, poor fit]"
CCOc1cccc(-c2nn3c(-c4ccco4)nnc3s2)c1,–,"6.51 µM [rising, single point]","6.51 µM [rising, single point]"
COc1ccccc1NC(=O)c1cc(C)nc2ccccc12,-50.6,–,–
CCOc1ccc(NC(=O)CN(c2ccc(OC)cc2)S(C)(=O)=O)cc1,3.14,–,"2.91 µM [rising, partial curve, poor fit]"
CCOC(=O)C1C(C(=O)NN)C1C(=O)Nc1ccccc1 (configuration not stated),84.9,"18.4 µM [rising, single point]",–
CCOC(=O)c1ccc(Oc2c(C)oc3cc(OS(C)(=O)=O)ccc3c2=O)cc1,-8.67,"0.00461 µM [rising, full curve, poor fit]","23.1 µM [falling, single point]"
CCc1nccn1S(=O)(=O)c1ccc(OC)c(C)c1C,-74.8,"18.4 µM [falling, single point]",–

Compound,cell number change [%],AC50 [1],AC50 [2]
Cc1ccc(S(=O)(=O)N2CCOCC2)cc1NC(=O)COC(=O)c1cc(=O)c2ccccc2o1,16.7,"0.517 µM [rising, partial curve, poor fit]",–
CCCCNC(=O)c1onc(CSc2cc(C)ccc2C)c1C(=O)O,-19.1,–,"0.116 µM [falling, full curve, poor fit]"
CCc1c(C)n2nc(C)cc2[nH]c1=O,6.47,–,"2.31 µM [falling, partial curve]"
Cc1ccc(S(=O)(=O)c2nc(-c3ccccc3)oc2N2CCCC2)cc1,-16.4,–,"0.00517 µM [falling, full curve, poor fit]"
COc1ccc(Cl)cc1NS(=O)(=O)c1cccc(C(=O)NCC2(N(C)C)CCCCC2)c1,–,–,"1.64 µM [falling, partial curve]"
COc1ccc(N(CC(=O)Nc2ccccc2C(N)=O)S(=O)(=O)c2ccc(C)c([N+](=O)[O-])c2)cc1,-33.5,"8.2 µM [falling, single point]",–
O=C(c1ccccc1F)N1CCN=C1SCc1cccnc1,31.3,"20.6 µM [rising, single point]","23.1 µM [rising, single point]"
O=C(COC(=O)c1ccc(S(=O)(=O)Nc2ccccc2)cc1)NCC1CCCO1 (configuration not stated),-5.59,–,–
CCC(C)NC(=O)c1cnn2c1NC(c1cccs1)CC2C(F)(F)F (configuration not stated),40,"10.3 µM [rising, partial curve]",–
CCOC(=O)COc1ccccc1/C=C\[N+](=O)[O-],-41.2,"8.2 µM [falling, partial curve]","4.61 µM [falling, full curve]"
N#CCSc1nn(-c2ccc(F)cc2)c(=S)s1,43,"23.1 µM [rising, single point]",–
Cc1ccccc1COCCN1CCN(S(=O)(=O)c2ccccc2)CCC1=O,–,–,"0.259 µM [rising, full curve, poor fit]"
COc1ccc(CNc2ncnc3ccccc23)cc1,-19,–,"29.1 µM [falling, single point]"
N#Cc1nc(NCC(F)F)nc(Nc2cc(F)cc(F)c2)n1,-46.2,"2.91 µM [falling, full curve]","4.11 µM [falling, full curve]"
COc1cc(C2=NOC(C(=O)NCc3cccnc3)C2)cc(OC)c1OC (configuration not stated),-21.6,–,"29.1 µM [falling, single point]"
N#CC(C(N)=O)=C1CCC2(CC1)OCCCCO2,-19.1,–,"29.1 µM [falling, partial curve]"
COc1cccc2cc(C(=O)Nc3ccccc3C)/c(=N/O)oc12,-23.4,–,–
CCN(CCCNC(=O)C1CCN(S(=O)(=O)c2c(C)[nH]c(=O)[nH]c2=O)CC1)c1cccc(C)c1,0.233,–,–
COc1ccc(-c2noc3c2-c2nc(-c4ccc(Cl)cc4)sc2CC3)cc1,15.3,–,"6.51 µM [rising, single point]"

# As entered above:
# In cell number change [%], Cc1ccc(S(=O)(=O)N2CCOCC2)cc1NC(=O)COC(=O)c1cc(=O)c2ccccc2o1 reads 16.7
# In AC50 [2], CCCCNC(=O)c1onc(CSc2cc(C)ccc2C)c1C(=O)O reads 0.116 µM [falling, full curve, poor fit]

# Single records, as listed above:
# CCN(CCCNC(=O)C1CCN(S(=O)(=O)c2c(C)[nH]c(=O)[nH]c2=O)CC1)c1cccc(C)c1 is listed with cell number change [%]: 0.233
# COc1ccc(Cl)cc1NS(=O)(=O)c1cccc(C(=O)NCC2(N(C)C)CCCCC2)c1 is listed with AC50 [2]: 1.64 µM [falling, partial curve]
